Drawing on PubChem BioAssay AID248 (DTP/NCI, 2004), this text covers T/C and survivor count for 14 molecules.

For the assay, the system named is L1210 leukemia ip in BDF1 mice, survival T/C. Briefly: NCI In Vivo Anticancer Drug Screen. Data for tumor model L1210 Leukemia (intraperitoneal) in B6D2F1 (BDF1) mice. Particulars: T/C endpoint: mean survival time, higher T/C = longer survival.
[1] abbreviates: dose: 400.0 mg/kg/injection, schedule: Q04DX003 (ip), vehicle: saline.
[2] abbreviates: dose: 100.0 mg/kg/injection, schedule: Q04DX003 (ip), vehicle: saline.
Setting [3] is: dose: 200.0 mg/kg/injection, schedule: Q04DX003 (ip), vehicle: saline.
The mark [4] stands for this setting: dose: 100.0 mg/kg/injection, schedule: Q04DX002 (ip), vehicle: saline with Tween-80.
[5] abbreviates: dose: 200.0 mg/kg/injection, schedule: Q04DX002 (ip), vehicle: saline with Tween-80.
The mark [6] stands for this setting: dose: 400.0 mg/kg/injection, schedule: Q04DX002 (ip), vehicle: saline with Tween-80.

The list does not hold the whole screen: it gathers some chemical classes. Other doses and runs of a compound may be missing. T/C gives the treated animals as a percentage of the vehicle group. Some doses have a count of surviving animals in place of a T/C: the source files T/C as zero there, which appears to mark a toxic dose or a test without result, not a measured value. Some doses without a T/C left all or most animals alive at the check, yet need not have been tolerated: survival well below the control is almost never listed, so the zero probably covers shortened survival too. Counts of survivors are from the toxicity check (mostly the fifth day) where no day follows; animals may have died later. Schedule codes are those of the source, read here as Q, the interval in days (D) or hours (H), X, the number of doses. Where survival is the endpoint, the PubChem record calls one and a half times the control and up active, and a quarter to a half above the control has no call in these data; cut-offs in other NCI protocols can differ. Some T/C values are marked as having no survivor count here; that says nothing about deaths at the dose. Some T/C values carry the count of animals alive at the toxicity check (mostly the fifth day); without a count or a note in brackets, all were alive then.

As for `CCOC(=O)C(CCSC)NC(=O)OCCNCCCl` (stereo unspecified), the T/C reads like this: (dose: 25.0 mg/kg/injection, schedule: Q01DX009 (ip), vehicle: saline) 111 % of control [5 of 6 alive]; (dose: 42.0 mg/kg/injection, schedule: Q01DX009 (ip), vehicle: saline) 113 % of control; (dose: 50.0 mg/kg/injection, schedule: Q01DX009 (ip), vehicle: saline) 129 % of control; (dose: 72.0 mg/kg/injection, schedule: Q01DX009 (ip), vehicle: saline) 115 % of control; (dose: 120.0 mg/kg/injection, schedule: Q01DX009 (ip), vehicle: saline) 118 % of control; (dose: 178.0 mg/kg/injection, schedule: Q04DX003 (ip), vehicle: saline) 90 % of control. Moreover, the survivor count by setting is: (dose: 100.0 mg/kg/injection, schedule: Q01DX009 (ip), vehicle: saline) 4 of 6; (dose: 176.0 mg/kg/injection, schedule: Q04DX003 (ip), vehicle: saline) 2 of 6; (dose: 200.0 mg/kg/injection, schedule: Q01DX009 (ip), vehicle: saline) 0 of 6; (dose: 264.0 mg/kg/injection, schedule: Q04DX003 (ip), vehicle: saline) 0 of 6; (dose: 266.0 mg/kg/injection, schedule: Q04DX003 (ip), vehicle: saline) 1 of 6; under setting [1], 0 of 6. Further, for the setting “dose: 600.0 mg/kg/injection, schedule: Q04DX003 (ip), vehicle: saline”, the survivor count was 0 of 6.

Take `CC1C(C)(C)P(=O)(Nc2ncn[nH]2)C1(C)C` (stereo unspecified): the T/C is, setting by setting: under setting [2], 100 % of control; under setting [3], 100 % of control. The survivor count under setting [1] is on record as 2 of 4.

On to `O=C(Nc1c([N+](=O)[O-])cc([N+](=O)[O-])cc1[N+](=O)[O-])C(=O)Nc1c([N+](=O)[O-])cc([N+](=O)[O-])cc1[N+](=O)[O-]`, for which the T/C reads like this: (dose: 100.0 mg/kg/injection, schedule: Q01DX001 (ip), vehicle: saline with Tween-80) 86 % of control [survivor count not shown]; (dose: 100.0 mg/kg/injection, schedule: Q04DX003 (ip), vehicle: other) 88 % of control [survivor count not shown]; (dose: 200.0 mg/kg/injection, schedule: Q01DX001 (ip), vehicle: saline with Tween-80) 91 % of control [survivor count not shown]; (dose: 200.0 mg/kg/injection, schedule: Q04DX003 (ip), vehicle: other) 89 % of control [survivor count not shown]; (dose: 400.0 mg/kg/injection, schedule: Q01DX001 (ip), vehicle: saline with Tween-80) 89 % of control [survivor count not shown]; (dose: 400.0 mg/kg/injection, schedule: Q04DX003 (ip), vehicle: other) 91 % of control [survivor count not shown].

Regarding `BrCCN1CCNCC1`, the T/C runs as follows: (dose: 100.0 mg/kg/injection, schedule: Q01DX001 (ip), vehicle: saline) 107 % of control; (dose: 200.0 mg/kg/injection, schedule: Q01DX001 (ip), vehicle: saline) 96 % of control [3 of 4 alive]. In addition, under “dose: 400.0 mg/kg/injection, schedule: Q01DX001 (ip), vehicle: saline”, the survivor count is listed as 0 of 4.

With `CN(C)P(=O)(Nc1ccccn1)N(C)C`, the T/C is 96 % of control (dose: 75.0 mg/kg/injection, schedule: Q01DX001 (ip), vehicle: saline) and 101 % of control [5 of 6 alive] (dose: 150.0 mg/kg/injection, schedule: Q01DX001 (ip), vehicle: saline). The survivor count (dose: 300.0 mg/kg/injection, schedule: Q01DX001 (ip), vehicle: saline) is recorded as 0 of 6.

For `O=C(O)C1C[N+]12C=CC=CC2=O` (stereo unspecified), the T/C by setting is: under setting [2], 100 % of control [5 of 6 alive]; under setting [3], 98 % of control; under setting [1], 98 % of control [4 of 6 alive].

For `CCCCSP1(SCCCC)=NP(Cl)(Cl)=NP(Cl)(Cl)=N1`, the T/C was 97 % of control under setting [4], 93 % of control under setting [5] and 107 % of control under setting [6].

For the molecule `Nc1ccc([As](=O)(O)O)c(O)c1`, the T/C is, setting by setting: (dose: 100.0 mg/kg/injection, schedule: Q01DX003 (ip), vehicle: Klucel (hydroxypropylcellulose) (HPC)) 97 % of control; (dose: 200.0 mg/kg/injection, schedule: Q01DX003 (ip), vehicle: Klucel (hydroxypropylcellulose) (HPC)) 100 % of control [5 of 6 alive]. For the same molecule, under “dose: 400.0 mg/kg/injection, schedule: Q01DX003 (ip), vehicle: Klucel (hydroxypropylcellulose) (HPC)”, the survivor count was 3 of 6.

In the case of `[N-]=[N+]=CC(=O)CCN(CCC(=O)C=[N+]=[N-])[N+](=O)[O-]`, the T/C is, setting by setting: under setting [4], 105 % of control; under setting [5], 108 % of control; under setting [6], 101 % of control.

In the case of `C(=C/[AsH](c1ccccc1)c1ccccc1)/[AsH](c1ccccc1)c1ccccc1.C(=C/[AsH](c1ccccc1)c1ccccc1)/[AsH](c1ccccc1)c1ccccc1.[Rh+2].[S-][S-]`, the T/C by setting is: (dose: 25.0 mg/kg/injection, schedule: Q01DX001 (ip), vehicle: Klucel (hydroxypropylcellulose) (HPC)) 106 % of control; (dose: 50.0 mg/kg/injection, schedule: Q01DX001 (ip), vehicle: Klucel (hydroxypropylcellulose) (HPC)) 97 % of control; (dose: 100.0 mg/kg/injection, schedule: Q01DX001 (ip), vehicle: Klucel (hydroxypropylcellulose) (HPC)) 105 % of control.

Regarding `CC1OOC1(C)C` (stereo unspecified), the T/C (dose: 50.0 mg/kg/injection, schedule: Q01DX001 (ip), vehicle: water) was 106 % of control; the T/C (dose: 100.0 mg/kg/injection, schedule: Q01DX001 (ip), vehicle: water) was 98 % of control; the T/C (dose: 200.0 mg/kg/injection, schedule: Q01DX001 (ip), vehicle: water) was 100 % of control.

Turning to `O=P(NC(=S)Nc1ccccc1)(NC(=S)Nc1ccccc1)N(CCCl)CCCl`, the T/C is, setting by setting: (dose: 100.0 mg/kg/injection, schedule: Q04DX003 (ip), vehicle: Klucel (hydroxypropylcellulose) (HPC)) 96 % of control; (dose: 200.0 mg/kg/injection, schedule: Q04DX003 (ip), vehicle: Klucel (hydroxypropylcellulose) (HPC)) 96 % of control; (dose: 400.0 mg/kg/injection, schedule: Q04DX003 (ip), vehicle: Klucel (hydroxypropylcellulose) (HPC)) 93 % of control [5 of 6 alive].

`O=C(OC1CN2CCC1CC2)c1ccc(O)cc1` (stereo unspecified): the T/C (dose: 6.25 mg/kg/injection, schedule: Q04DX003 (ip), vehicle: saline) is 102 % of control; the T/C (dose: 12.5 mg/kg/injection, schedule: Q04DX003 (ip), vehicle: saline) is 100 % of control; the T/C (dose: 25.0 mg/kg/injection, schedule: Q04DX003 (ip), vehicle: saline) is 108 % of control.

In the case of `Cc1cc(Cl)nc(NC(=O)NP(=O)(Nc2ccccc2)Nc2ccccc2)n1`, the T/C (dose: 50.0 mg/kg/injection, schedule: Q01DX001 (ip), vehicle: alcohol) is 114 % of control; the T/C (dose: 100.0 mg/kg/injection, schedule: Q01DX001 (ip), vehicle: alcohol) was 98 % of control; the T/C (dose: 200.0 mg/kg/injection, schedule: Q01DX001 (ip), vehicle: alcohol) was 102 % of control; the T/C (dose: 400.0 mg/kg/injection, schedule: Q01DX001 (ip), vehicle: alcohol) is 108 % of control.
